# Source: patent US6600015B2 (Hoffmann-La Roche Inc., priority 2000, dated 2003)
# Assay: general procedure: Fmoc solid-phase peptide synthesis; Fmoc-Linker-BHA resin (Rink linker on benzhydrylamine resin); Wang resin; HBTU and DIC preferred, HOBT additive; HBTU/DIPEA in DMF
# Conditions: whole synthesis, scale 0.2 mmol
substance,measurement,value
Bu-His-(D)Phe-Arg-Trp-Gly-NH2,crude mass,130 mg
same,isolated mass,52 mg
same,isolated yield,34%
